Assay results reported in patent publication EP4752142A1, “5-HT2A RECEPTOR AGONIST, AND PREPARATION METHOD THEREFOR AND USE THEREOF” (Innovstone Therapeutics Limited, priority 2023, dated 2025).
At least one structure is not confirmed: it was looked up by name or label, or the drawing left a doubt.

System: Mice (strain C57BL/6)
Test: Head-twitch response test in mice
Assay type: in vivo
Details: dose 2 mpk; reflects hallucinogenic effect; Figure 1
Procedure: • 1. Assay conditions and materials: • 1.1 Animal source: Mice (strain C57BL/6, purchased from Shanghai Lingchang Biotechnology Co., Ltd., 8-9 weeks old, 20-24 grams, male) • 1.2 Conditions: Temperature (20-25°C), relative humidity (40-70%), light cycle (12-hour light cycle (7:00-19:00)), free access to food and water • 1.3 Marking: Animals were marked on the tail. • 2. Assay procedure:
• A) Adaptation: Starting from the second day after the animals arrived, they were conciliated by stroking and acclimated for seven consecutive days to reduce their stress response. • B) Grouping: One hour before the assay test, animals were placed in the testing room for adaptation. On the test day, animals were randomly grouped according to body weight. Each group contained 12 animals. • C) Assay Dosing: Animal body weight was measured, and compounds were administered according to the group, with a dosing volume of 10 mL/kg for all. • D) Testing: After dosing, animals were placed in transparent observation chambers, and head-twitch behaviors were recorded over 60 minutes. • E) Assay test indicator: Total number of head-twitches within 60 minutes after dosing.

CN(C)CCc1c[nH]c2cccc(OP(=O)(O)O)c12 [Psilocybin, reference compound]
Total number of head-twitches within 60 minutes after dosing: significant head-twitch behavior
